# Source: publication PMC11157767 (Molecular Cancer, 2024)
# This continues a long series; more values of the same kind are listed elsewhere.
# Tested on: TFG-MET allograft tumors
# Test: RNA-sequencing, differential expression and GSEA of TFG-MET allograft tumors
# Type: in vivo, mouse
# Settings: CAP v Veh
# Protocol: Error bars display standard error of mean, statistical significance was determined using t-test analysis. (****;p<0.0001, ***;p<0.001, **;p<0.01, *;p<0.05). […] Each dot represents an individual replicate. Error bars display standard error of the mean.
# Each dot represents one gene.
structure (smiles),measurement,setting,value
CNC(=O)c1ccc(-c2cnc3ncc(Cc4ccc5ncccc5c4)n3n2)cc1F [Capmatinib],NES,"GOMF_PEPTIDE_RECEPTOR_ACTIVITY, padj 0.0807945",1.3812
same,ES,GOMF_PHOSPHOLIPASE_ACTIVITY,0.381
same,NES,"GOMF_PHOSPHOLIPASE_ACTIVITY, padj 0.0022957",1.892
same,ES,GOMF_PHOSPHOPROTEIN_PHOSPHATASE_ACTIVITY,-0.3191
same,NES,"GOMF_PHOSPHOPROTEIN_PHOSPHATASE_ACTIVITY, padj 0.096235",-1.393
same,ES,GOMF_PRE_MRNA_BINDING,-0.588
same,NES,"GOMF_PRE_MRNA_BINDING, padj 0.000682986",-2.009
same,ES,GOMF_PROTEIN_METHYLTRANSFERASE_ACTIVITY,-0.4731
same,NES,"GOMF_PROTEIN_METHYLTRANSFERASE_ACTIVITY, padj 0.00174921",-1.856
same,ES,GOMF_PROTEIN_SERINE_KINASE_ACTIVITY,-0.3713
same,ES,GOMF_PROTON_TRANSMEMBRANE_TRANSPORTER_ACTIVITY,0.4534
same,NES,"GOMF_PROTON_TRANSMEMBRANE_TRANSPORTER_ACTIVITY, padj 1.02839e-6",2.257
same,ES,GOMF_REPRESSING_TRANSCRIPTION_FACTOR_BINDING,-0.3874
same,NES,"GOMF_REPRESSING_TRANSCRIPTION_FACTOR_BINDING, padj 0.0966247",-1.493
same,ES,GOMF_RIBONUCLEASE_ACTIVITY,-0.4982
same,NES,"GOMF_RIBONUCLEASE_ACTIVITY, padj 9.12556e-6",-2.0504
same,ES,GOMF_RIBOSOMAL_SMALL_SUBUNIT_BINDING,-0.7352
same,NES,"GOMF_RIBOSOMAL_SMALL_SUBUNIT_BINDING, padj 0.000365194",-2.088
same,ES,GOMF_RIBOSOME_BINDING,-0.5268
same,NES,"GOMF_RIBOSOME_BINDING, padj 0.00104755",-1.943
same,ES,GOMF_RNA_CAP_BINDING,-0.7315
same,NES,"GOMF_RNA_CAP_BINDING, padj 0.00133141",-2.04
same,ES,GOMF_RNA_HELICASE_ACTIVITY,-0.6195
same,NES,"GOMF_RNA_HELICASE_ACTIVITY, padj 1.06457e-8",-2.418
same,ES,GOMF_RNA_METHYLTRANSFERASE_ACTIVITY,-0.6408
same,ES,GOMF_RNA_POLYMERASE_ACTIVITY,-0.6234
same,NES,"GOMF_RNA_POLYMERASE_ACTIVITY, padj 0.000114721",-2.14
same,ES,GOMF_RNA_POLYMERASE_BINDING,-0.5124
same,NES,"GOMF_RNA_POLYMERASE_BINDING, padj 0.000995291",-1.928
same,ES,GOMF_RNA_POLYMERASE_II_CORE_PROMOTER_SEQUENCE_SPECIFIC_DNA_BINDING,-0.566
same,NES,"GOMF_RNA_POLYMERASE_II_CORE_PROMOTER_SEQUENCE_SPECIFIC_DNA_BINDING, padj 0.0966247",-1.579
same,ES,GOMF_RNA_POLYMERASE_II_GENERAL_TRANSCRIPTION_INITIATION_FACTOR_BINDING,-0.5325
same,NES,"GOMF_RNA_POLYMERASE_II_GENERAL_TRANSCRIPTION_INITIATION_FACTOR_BINDING, padj 0.0762355",-1.559
same,ES,GOMF_RRNA_BINDING,-0.501
same,NES,"GOMF_RRNA_BINDING, padj 0.00144515",-1.884
same,ES,GOMF_SEROTONIN_RECEPTOR_ACTIVITY,0.4916
same,NES,"GOMF_SEROTONIN_RECEPTOR_ACTIVITY, padj 0.096438",1.653
same,ES,GOMF_SINGLE_STRANDED_DNA_BINDING,-0.4837
same,NES,"GOMF_SINGLE_STRANDED_DNA_BINDING, padj 4.12475e-5",-2.012
same,ES,GOMF_SINGLE_STRANDED_DNA_HELICASE_ACTIVITY,-0.7063
same,NES,"GOMF_SINGLE_STRANDED_DNA_HELICASE_ACTIVITY, padj 0.000708609",-2.068
same,ES,GOMF_SINGLE_STRANDED_RNA_BINDING,-0.5128
same,NES,"GOMF_SINGLE_STRANDED_RNA_BINDING, padj 9.34144e-5",-2.03
same,ES,GOMF_SNRNA_BINDING,-0.5792
same,NES,"GOMF_SNRNA_BINDING, padj 0.000589704",-2.033
same,ES,GOMF_SOLUTE_CATION_ANTIPORTER_ACTIVITY,0.4133
same,NES,"GOMF_SOLUTE_CATION_ANTIPORTER_ACTIVITY, padj 0.0995416",1.58
same,ES,GOMF_STRUCTURAL_CONSTITUENT_OF_NUCLEAR_PORE,-0.7381
same,NES,"GOMF_STRUCTURAL_CONSTITUENT_OF_NUCLEAR_PORE, padj 3.19533e-5",-2.231
same,ES,GOMF_TELOMERASE_RNA_BINDING,-0.6867
same,NES,"GOMF_TELOMERASE_RNA_BINDING, padj 0.000589704",-2.075
same,ES,GOMF_TELOMERIC_DNA_BINDING,-0.5573
same,NES,"GOMF_TELOMERIC_DNA_BINDING, padj 0.00250145",-1.904
same,ES,GOMF_TRANSCRIPTION_COACTIVATOR_ACTIVITY,-0.365
same,NES,"GOMF_TRANSCRIPTION_COACTIVATOR_ACTIVITY, padj 0.000678027",-1.663
same,ES,GOMF_TRANSCRIPTION_COREGULATOR_ACTIVITY,-0.3862
same,NES,"GOMF_TRANSCRIPTION_COREGULATOR_ACTIVITY, padj 4.79178e-8",-1.829
same,ES,GOMF_TRANSCRIPTION_COREPRESSOR_ACTIVITY,-0.4314
same,NES,"GOMF_TRANSCRIPTION_COREPRESSOR_ACTIVITY, padj 1.94061e-5",-1.895
same,ES,GOMF_TRANSCRIPTION_FACTOR_BINDING,-0.3497
same,ES,GOMF_TRANSFERASE_ACTIVITY_TRANSFERRING_ACYL_GROUPS,-0.2972
same,NES,"GOMF_TRANSFERASE_ACTIVITY_TRANSFERRING_ACYL_GROUPS, padj 0.0995416",-1.333
same,ES,GOMF_TRANSFERASE_ACTIVITY_TRANSFERRING_ONE_CARBON_GROUPS,-0.5419
same,NES,"GOMF_TRANSFERASE_ACTIVITY_TRANSFERRING_ONE_CARBON_GROUPS, padj 6.40741e-14",-2.405
same,ES,GOMF_TRANSFERASE_ACTIVITY_TRANSFERRING_PENTOSYL_GROUPS,-0.4359
same,NES,"GOMF_TRANSFERASE_ACTIVITY_TRANSFERRING_PENTOSYL_GROUPS, padj 0.0821726",-1.542
same,ES,GOMF_TRANSFERASE_ACTIVITY_TRANSFERRING_PHOSPHORUS_CONTAINING_GROUPS,-0.2871
same,NES,"GOMF_TRANSFERASE_ACTIVITY_TRANSFERRING_PHOSPHORUS_CONTAINING_GROUPS, padj 0.00133141",-1.396
same,ES,GOMF_TRANSLATION_FACTOR_ACTIVITY_RNA_BINDING,-0.5479
same,NES,"GOMF_TRANSLATION_FACTOR_ACTIVITY_RNA_BINDING, padj 4.01038e-6",-2.163
same,ES,GOMF_TRANSLATION_INITIATION_FACTOR_ACTIVITY,-0.6039
same,NES,"GOMF_TRANSLATION_INITIATION_FACTOR_ACTIVITY, padj 1.62265e-5",-2.206
same,ES,GOMF_TRANSLATION_INITIATION_FACTOR_BINDING,-0.5884
same,NES,"GOMF_TRANSLATION_INITIATION_FACTOR_BINDING, padj 0.00198095",-1.933
same,ES,GOMF_TRANSLATION_REGULATOR_ACTIVITY_NUCLEIC_ACID_BINDING,-0.5424
same,NES,"GOMF_TRANSLATION_REGULATOR_ACTIVITY_NUCLEIC_ACID_BINDING, padj 7.97652e-8",-2.232
same,ES,GOMF_TRANSLATION_REPRESSOR_ACTIVITY,-0.6184
same,NES,"GOMF_TRANSLATION_REPRESSOR_ACTIVITY, padj 0.00192115",-1.996
same,ES,GOMF_TRNA_METHYLTRANSFERASE_ACTIVITY,-0.6719
same,NES,"GOMF_TRNA_METHYLTRANSFERASE_ACTIVITY, padj 3.26846e-5",-2.231
same,ES,GOMF_ZINC_ION_BINDING,-0.3192
